# Values of other authors, collected in patent US9693971B2, “Compositions for alleviating gastrointestinal tract disorders or associated systemic disorders in ruminants and camelids” (FREIE UNIVERSITÄT BERLIN, priority 2012, dated 2017).
# By UniProt entry, the sequences of proteins in these tests, tags left out.
# UniProt Q8NER1, whole entry, species assumed: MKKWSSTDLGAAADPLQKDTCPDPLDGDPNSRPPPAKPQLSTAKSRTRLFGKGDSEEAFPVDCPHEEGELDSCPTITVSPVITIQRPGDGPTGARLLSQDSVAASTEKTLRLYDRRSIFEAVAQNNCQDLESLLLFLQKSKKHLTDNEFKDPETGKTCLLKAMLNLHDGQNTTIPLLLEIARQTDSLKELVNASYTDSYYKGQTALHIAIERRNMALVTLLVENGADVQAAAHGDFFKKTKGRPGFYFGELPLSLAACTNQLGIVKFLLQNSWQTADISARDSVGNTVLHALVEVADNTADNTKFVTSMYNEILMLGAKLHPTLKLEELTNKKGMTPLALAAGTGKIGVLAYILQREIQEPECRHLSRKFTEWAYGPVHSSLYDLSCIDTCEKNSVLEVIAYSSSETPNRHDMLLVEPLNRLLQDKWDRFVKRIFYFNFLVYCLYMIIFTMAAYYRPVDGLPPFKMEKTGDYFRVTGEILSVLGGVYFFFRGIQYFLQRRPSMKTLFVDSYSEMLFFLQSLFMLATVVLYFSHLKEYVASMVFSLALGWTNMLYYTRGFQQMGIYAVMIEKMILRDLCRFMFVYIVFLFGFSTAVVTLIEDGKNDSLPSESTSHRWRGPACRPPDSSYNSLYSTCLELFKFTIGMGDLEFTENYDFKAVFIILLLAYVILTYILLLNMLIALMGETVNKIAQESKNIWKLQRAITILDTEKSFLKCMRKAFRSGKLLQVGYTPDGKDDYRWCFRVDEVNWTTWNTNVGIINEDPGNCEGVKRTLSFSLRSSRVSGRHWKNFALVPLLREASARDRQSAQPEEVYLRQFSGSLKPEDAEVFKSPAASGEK
# At least one structure is not confirmed: it was looked up by name or label, or the drawing left a doubt.
# Target: TRPV1 (Homo sapiens, UniProt Q8NER1)
# Settings: cited from earlier work
structure (smiles),measurement,value
"O=C(/C=C/C=C/c1ccc2c(c1)OCO2)N1CCCCC1 [Piperine, piperine]",Effect on TRPV1,Agonist
